# Cleaved PARP in drug-treated melanoma cells

Values as published with doi:10.1371/journal.pone.0140310, rounded.

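The test systems are human melanoma cell lines, treated with two drugs together for 72 h and then stained and imaged. The read-out is the fraction of cleaved-PARP-positive nuclei, in % of that fraction in the DMSO control; 200 means twice the control level of this apoptosis marker. Every drug was used at one fixed concentration, the higher of two screened. These are primary screening values without error estimates. The marker varies much from line to line, for technical or biological reasons.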
An unselected part of the screen is shown.
A dash means that no value is listed here.

First drug in all entries: tipifarnib, 0.05 µM, Cn1cncc1[C@@](N)(c1ccc(Cl)cc1)c1ccc2c(c1)c(-c1cccc(Cl)c1)cc(=O)n2C

Drug key:
T0901317, 7 µM: O=S(=O)(c1ccccc1)N(CC(F)(F)F)c1ccc(C(O)(C(F)(F)F)C(F)(F)F)cc1
dovitinib, 0.5 µM: CN1CCN(c2ccc3nc(-c4c(N)c5c(F)cccc5[nH]c4=O)[nH]c3c2)CC1
crizotinib, 1 µM: C[C@@H](Oc1cc(-c2cnn(C3CCNCC3)c2)cnc1N)c1c(Cl)ccc(F)c1Cl
MK-2206, 2 µM: NC1(c2ccc(-c3nc4ccn5c(=O)[nH]nc5c4cc3-c3ccccc3)cc2)CCC1
LFM-A13, 10 µM: C/C(O)=C(\C#N)C(=O)Nc1cc(Br)ccc1Br
selumetinib, 0.075 µM: Cn1cnc2c(F)c(Nc3ccc(Br)cc3Cl)c(C(=O)NOCCO)cc21
tamatinib, 2 µM: COc1cc(Nc2ncc(F)c(Nc3ccc4c(n3)NC(=O)C(C)(C)O4)n2)cc(OC)c1OC
YM155, 0.002 µM: COCC[n+]1c2c(n(Cc3cnccn3)c1C)C(=O)c1ccccc1C2=O
veliparib, 7 µM: C[C@]1(c2nc3c(C(N)=O)cccc3[nH]2)CCCN1
vatalanib, 10 µM: Clc1ccc(Nc2nnc(Cc3ccncc3)c3ccccc23)cc1
embelin, 6 µM: CCCCCCCCCCCC1=C(O)C(=O)C=C(O)C1=O
NVP-TAE684, 0.4 µM: COc1cc(N2CCC(N3CCN(C)CC3)CC2)ccc1Nc1ncc(Cl)c(Nc2ccccc2S(=O)(=O)C(C)C)n1
vismodegib, 5 µM: CS(=O)(=O)c1ccc(C(=O)Nc2ccc(Cl)c(-c3ccccn3)c2)c(Cl)c1
dorsomorphin, 2 µM: c1cc(-c2cnn3cc(-c4ccc(OCCN5CCCCC5)cc4)cnc23)ccn1
tozasertib, 0.03 µM: Cc1cc(Nc2cc(N3CCN(C)CC3)nc(Sc3ccc(NC(=O)C4CC4)cc3)n2)n[nH]1
sunitinib, 2 µM: CCN(CC)CCNC(=O)c1c(C)[nH]c(/C=C2\C(=O)Nc3ccc(F)cc32)c1C
pazopanib, 2 µM: Cc1ccc(Nc2nccc(N(C)c3ccc4c(C)n(C)nc4c3)n2)cc1S(N)(=O)=O
RKI-983, 2 µM: C[C@@H](N)c1ccc(C(=O)Nc2ccnc3[nH]ccc23)cc1
GW441756, 2 µM: Cn1cc(/C=C2\C(=O)Nc3cccnc32)c2ccccc21
fingolimod, 10 µM: CCCCCCCCc1ccc(CCC(N)(CO)CO)cc1
GSK650394, 0.8 µM: O=C(O)c1ccc(-c2c[nH]c3ncc(-c4ccccc4)cc23)cc1C1CCCC1
SNS-314, 0.004 µM: O=C(Nc1cccc(Cl)c1)Nc1ncc(CCNc2ncnc3ccsc23)s1
darinaparsin, 2 µM: C[As](C)SC[C@H](NC(=O)CC[C@H](N)C(=O)O)C(=O)NCC(=O)O
erlotinib, 4 µM: C#Cc1cccc(Nc2ncnc3cc(OCCOC)c(OCCOC)cc23)c1
CX-4945, 2 µM: O=C(O)c1ccc2c(c1)nc(Nc1cccc(Cl)c1)c1ccncc12
vincristine, 0.0005 µM: CC[C@]1(O)C[C@H]2CN(CCc3c([nH]c4ccccc34)[C@@](C(=O)OC)(c3cc4c(cc3OC)N(C=O)[C@H]3[C@@](O)(C(=O)OC)[C@H](OC(C)=O)[C@]5(CC)C=CCN6CC[C@]43[C@@H]65)C2)C1

| # | Partner | UACC-62 | SK-MEL-30 | WM3526 | IST-MEL1 | WM451Lu | A2058 | MZ2-MEL | 501mel | WM115 | C32 | MEL-HO | G-361 | COLO 829 | LB2518-MEL |
|---|---|---|---|---|---|---|---|---|---|---|---|---|---|---|---|
| 1 | LFM-A13 | 229 | 62.1 | 61.3 | 146 | 316 | 177 | 92.6 | 164 | 139 | 98.9 | 27.5 | 112 | 212 | 174 |
| 2 | erlotinib | 186 | 66.2 | 252 | 44.8 | 170 | 180 | 103 | - | 467 | 369 | 77.9 | 166 | 109 | 786 |
| 3 | MK-2206 | 190 | 164 | 232 | 194 | 233 | 119 | 176 | - | 718 | 116 | 109 | 134 | 98.6 | 267 |
| 4 | T0901317 | 104 | 118 | 142 | 219 | 248 | 124 | 85.4 | 143 | 115 | 218 | 205 | 153 | 54.5 | 62.5 |
| 5 | YM155 | 145 | 111 | 1290 | 110 | 126 | 578 | 277 | - | 161 | 36.1 | 168 | 141 | 150 | 273 |
| 6 | vincristine | 125 | 222 | 560 | 361 | 1400 | 2620 | 276 | - | 2590 | 121 | 165 | 311 | 191 | 233 |
| 7 | vismodegib | 106 | 35.1 | 134 | 109 | 50.2 | 146 | 57.2 | - | 156 | 123 | 137 | 180 | 114 | 82.6 |
| 8 | selumetinib | 153 | 196 | 481 | 123 | 78.3 | 184 | 159 | - | 166 | 79.1 | 163 | 297 | 135 | 221 |
| 9 | veliparib | 158 | 70.0 | 167 | 52.6 | 159 | 133 | 116 | - | 466 | 154 | 118 | 218 | 104 | 184 |
| 10 | vatalanib | 209 | 75.3 | 326 | 201 | 352 | 224 | 113 | - | 104 | 230 | 110 | 365 | 129 | 287 |
| 11 | GSK650394 | 123 | 108 | 279 | 220 | 184 | 173 | 87.3 | - | 277 | 355 | 81.6 | 234 | 109 | 200 |
| 12 | CX-4945 | 160 | 182 | 901 | 258 | 67.0 | 322 | 216 | - | 76.0 | 194 | 124 | 344 | 101 | 238 |
| 13 | darinaparsin | 107 | 129 | 378 | 56.9 | 128 | 95.6 | 178 | - | 247 | 175 | 87.7 | 38.9 | 117 | 85.9 |
| 14 | tozasertib | 167 | 24.9 | 108 | 115 | 51.7 | 113 | 175 | - | 195 | 75.6 | 128 | 75.5 | 64.0 | 54.4 |
| 15 | tamatinib | 137 | 63.0 | 94.7 | 141 | 152 | 233 | 134 | - | 74.0 | 47.1 | 127 | 209 | 96.3 | 159 |
| 16 | crizotinib | 152 | 91.0 | 363 | 94.6 | 316 | 149 | 121 | - | 536 | 130 | 83.3 | 342 | 196 | 209 |
| 17 | sunitinib | 203 | 388 | 566 | 181 | 233 | 517 | 132 | - | 598 | 680 | 43.7 | 480 | 65.5 | 234 |
| 18 | dovitinib | 137 | 72.1 | 233 | 342 | 113 | 1270 | 291 | - | 456 | 295 | 84.6 | 205 | 116 | 44.7 |
| 19 | embelin | 70.0 | 141 | 68.0 | 83.6 | 103 | 181 | 183 | 159 | 262 | 97.4 | 53.1 | 35.8 | 151 | 160 |
| 20 | NVP-TAE684 | 184 | 106 | 405 | 69.6 | 110 | 359 | 84.0 | 194 | 213 | 158 | 53.8 | 121 | 52.4 | 340 |
| 21 | SNS-314 | 101 | 53.3 | 171 | 190 | 174 | 333 | 129 | - | 946 | 273 | 85.2 | 123 | 104 | 65.5 |
| 22 | RKI-983 | 272 | 147 | 270 | 70.1 | 286 | 233 | 420 | - | 305 | 261 | 81.3 | 266 | 171 | 146 |
| 23 | fingolimod | 225 | 2030 | 5090 | 597 | 2990 | 2290 | 21500 | - | 1730 | 2090 | 4460 | 7420 | 196 | 51100 |
| 24 | pazopanib | 99.2 | 63.6 | 168 | 149 | 47.8 | 95.4 | 97.7 | - | 116 | 60.7 | 67.4 | 152 | 143 | 114 |
| 25 | dorsomorphin | 113 | 103 | 206 | 513 | 93.5 | 290 | 70.8 | 184 | 323 | 165 | 167 | 228 | 89.7 | 86.2 |
| 26 | GW441756 | 61.6 | 70.2 | 233 | 59.0 | 120 | 94.7 | 22.6 | 215 | 256 | 109 | 94.0 | 87.6 | 46.6 | 83.9 |

2 of the entries, repeated:

| Partner | UACC-62 | SK-MEL-30 | WM3526 | IST-MEL1 | WM451Lu | A2058 | MZ2-MEL | 501mel | WM115 | C32 | MEL-HO | G-361 | COLO 829 | LB2518-MEL |
|---|---|---|---|---|---|---|---|---|---|---|---|---|---|---|
| vismodegib | 106 | 35.1 | 134 | 109 | 50.2 | 146 | 57.2 | - | 156 | 123 | 137 | 180 | 114 | 82.6 |
| fingolimod | 225 | 2030 | 5090 | 597 | 2990 | 2290 | 21500 | - | 1730 | 2090 | 4460 | 7420 | 196 | 51100 |